Measurements taken from patent US9820487B2, “Abscinazole” (NATIONAL UNIVERSITY CORPORATION SHIZUOKA UNIVERSITY, priority 2014, dated 2017).
Some of these results come from one statement about several compounds together.

These molecules were tested on rice plant (Oryza saliva L. cv. Nihonbare) (assay: Rice plant second leaf sheath extension inhibition test). Details: high concentration application; 7 days, 30° C., continuous light (FIG. 4).
Type: in vivo

| SMILES | second leaf sheath extension |
| --- | --- |
| COCCOCCOCCOCC#Cc1cccc(/C=C(\C(O)C(C)(C)C)n2cncn2)c1 (stereo not drawn) [Example 1, (E)-1-(3-(2,5,8,11-tetraoxatetradec-13-yn-14-yl)phenyl)-4,4-dimethyl-2-(1H-1,2,4-triazol-1-yl)pent-1-en-3-ol] | inhibits the leaf sheath extension |
| COCCOCCOCCOCC#Cc1ccc(/C=C(\C(O)C(C)(C)C)n2cncn2)cc1 (stereo not drawn) [Example 3, (E)-1-(4-(2,5,8,11-tetraoxatetradec-13-yn-14-yl)phenyl)-4,4-dimethyl-2-(1H-1,2,4-triazol-1-yl)pent-1-en-3-ol] | inhibits the leaf sheath extension |
| CCCCOCCOCCOCC#Cc1cccc(/C=C(\C(O)C(C)(C)C)n2cncn2)c1 (stereo not drawn) [Example 2, (E)-1-(3-(3-(2-(2-butoxyethoxy)ethoxy)prop-1-yn-1-yl)phenyl)-4,4-dimethyl-2-(1H-1,2,4-triazol-1-yl)pent-1-en-3-ol] | inhibits the leaf sheath extension |
